The supplement of paper PMC6411743
± gives the standard deviation of the averaged measurements. This is a selection; strong and weak results do not stand in their true shares.

Protein sequences, listed by entry. Tags and fused reporters are not part of them. Lines headed by an entry give the natural chain unless they say otherwise; changes in a name come on top.
UniProt Q01196, whole entry: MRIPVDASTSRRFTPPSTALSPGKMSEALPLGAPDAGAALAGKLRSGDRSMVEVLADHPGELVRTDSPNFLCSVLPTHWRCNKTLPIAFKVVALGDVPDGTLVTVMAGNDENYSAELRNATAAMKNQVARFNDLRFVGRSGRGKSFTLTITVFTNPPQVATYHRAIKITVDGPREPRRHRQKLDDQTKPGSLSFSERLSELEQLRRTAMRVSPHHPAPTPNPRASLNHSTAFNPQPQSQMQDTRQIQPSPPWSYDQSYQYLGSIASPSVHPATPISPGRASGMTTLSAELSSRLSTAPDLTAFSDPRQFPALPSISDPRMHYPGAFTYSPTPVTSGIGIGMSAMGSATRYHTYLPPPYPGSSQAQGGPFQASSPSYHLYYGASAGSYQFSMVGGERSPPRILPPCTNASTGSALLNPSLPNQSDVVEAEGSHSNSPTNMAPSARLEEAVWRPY
UniProt P56524: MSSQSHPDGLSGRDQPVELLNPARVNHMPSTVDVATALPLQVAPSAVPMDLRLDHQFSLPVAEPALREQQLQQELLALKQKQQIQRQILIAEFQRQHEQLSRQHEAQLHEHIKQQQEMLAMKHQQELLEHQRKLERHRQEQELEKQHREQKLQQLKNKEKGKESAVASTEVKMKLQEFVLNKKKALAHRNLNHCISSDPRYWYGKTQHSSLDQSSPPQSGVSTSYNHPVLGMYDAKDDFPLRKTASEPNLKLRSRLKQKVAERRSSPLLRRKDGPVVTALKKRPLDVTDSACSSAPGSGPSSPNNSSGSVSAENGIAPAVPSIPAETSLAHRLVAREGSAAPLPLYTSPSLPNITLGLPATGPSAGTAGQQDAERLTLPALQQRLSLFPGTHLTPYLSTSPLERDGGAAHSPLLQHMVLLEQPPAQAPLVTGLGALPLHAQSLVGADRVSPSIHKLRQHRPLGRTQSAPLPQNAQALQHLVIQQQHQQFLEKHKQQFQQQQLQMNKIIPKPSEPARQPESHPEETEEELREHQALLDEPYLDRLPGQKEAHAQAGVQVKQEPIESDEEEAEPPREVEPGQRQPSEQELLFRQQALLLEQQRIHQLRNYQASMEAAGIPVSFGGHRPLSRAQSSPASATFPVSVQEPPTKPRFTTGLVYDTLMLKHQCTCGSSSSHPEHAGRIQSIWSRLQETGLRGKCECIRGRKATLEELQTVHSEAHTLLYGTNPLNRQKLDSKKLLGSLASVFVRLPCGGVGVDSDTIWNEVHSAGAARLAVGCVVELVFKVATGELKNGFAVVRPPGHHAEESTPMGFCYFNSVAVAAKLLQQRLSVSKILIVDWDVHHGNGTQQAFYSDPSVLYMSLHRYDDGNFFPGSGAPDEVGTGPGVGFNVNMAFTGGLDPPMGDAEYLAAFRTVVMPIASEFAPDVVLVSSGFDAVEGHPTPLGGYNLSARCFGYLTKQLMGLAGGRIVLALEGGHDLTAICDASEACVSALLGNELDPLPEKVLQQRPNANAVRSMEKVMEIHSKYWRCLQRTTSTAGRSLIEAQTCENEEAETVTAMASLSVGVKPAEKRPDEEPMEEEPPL
UniProt Q02535: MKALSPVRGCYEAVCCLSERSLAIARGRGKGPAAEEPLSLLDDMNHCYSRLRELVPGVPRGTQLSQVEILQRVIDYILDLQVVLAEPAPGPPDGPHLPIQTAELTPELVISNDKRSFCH
UniProt P67936, whole entry: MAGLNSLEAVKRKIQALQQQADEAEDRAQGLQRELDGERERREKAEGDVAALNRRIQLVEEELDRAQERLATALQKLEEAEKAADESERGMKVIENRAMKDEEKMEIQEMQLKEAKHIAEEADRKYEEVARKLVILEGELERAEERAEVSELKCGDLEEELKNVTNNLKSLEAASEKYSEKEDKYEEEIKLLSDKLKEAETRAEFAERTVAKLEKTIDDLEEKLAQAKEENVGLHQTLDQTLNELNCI
UniProt P56199, whole entry: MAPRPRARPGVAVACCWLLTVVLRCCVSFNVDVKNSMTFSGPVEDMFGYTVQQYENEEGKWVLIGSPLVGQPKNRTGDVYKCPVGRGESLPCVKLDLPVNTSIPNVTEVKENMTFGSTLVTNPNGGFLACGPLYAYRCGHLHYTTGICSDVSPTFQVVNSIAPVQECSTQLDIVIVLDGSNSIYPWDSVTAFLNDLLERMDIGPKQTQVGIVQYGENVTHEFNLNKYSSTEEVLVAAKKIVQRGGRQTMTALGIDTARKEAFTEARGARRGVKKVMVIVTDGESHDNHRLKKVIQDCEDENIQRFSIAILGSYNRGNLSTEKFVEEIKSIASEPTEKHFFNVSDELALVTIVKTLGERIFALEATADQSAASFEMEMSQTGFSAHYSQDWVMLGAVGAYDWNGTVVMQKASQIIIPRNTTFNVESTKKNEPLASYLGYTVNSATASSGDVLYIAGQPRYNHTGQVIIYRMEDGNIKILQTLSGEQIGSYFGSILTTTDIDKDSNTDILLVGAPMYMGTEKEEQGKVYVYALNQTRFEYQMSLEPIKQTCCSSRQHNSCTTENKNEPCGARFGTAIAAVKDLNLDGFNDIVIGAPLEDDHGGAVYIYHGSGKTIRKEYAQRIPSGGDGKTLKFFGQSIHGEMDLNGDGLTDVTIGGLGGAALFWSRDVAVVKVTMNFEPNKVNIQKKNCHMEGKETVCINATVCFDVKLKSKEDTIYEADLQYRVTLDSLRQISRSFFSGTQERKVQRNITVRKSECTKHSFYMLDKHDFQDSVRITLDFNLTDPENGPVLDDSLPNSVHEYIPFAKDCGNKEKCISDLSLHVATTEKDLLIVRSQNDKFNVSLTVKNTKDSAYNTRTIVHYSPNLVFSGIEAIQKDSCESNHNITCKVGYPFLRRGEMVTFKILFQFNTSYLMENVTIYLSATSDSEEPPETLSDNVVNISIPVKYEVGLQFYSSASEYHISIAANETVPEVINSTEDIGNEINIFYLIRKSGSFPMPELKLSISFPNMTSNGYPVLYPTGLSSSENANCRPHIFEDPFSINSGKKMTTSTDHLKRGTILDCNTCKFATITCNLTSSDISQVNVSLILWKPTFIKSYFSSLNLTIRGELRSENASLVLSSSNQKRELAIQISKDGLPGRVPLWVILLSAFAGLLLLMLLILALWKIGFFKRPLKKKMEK
UniProt P67870, whole entry: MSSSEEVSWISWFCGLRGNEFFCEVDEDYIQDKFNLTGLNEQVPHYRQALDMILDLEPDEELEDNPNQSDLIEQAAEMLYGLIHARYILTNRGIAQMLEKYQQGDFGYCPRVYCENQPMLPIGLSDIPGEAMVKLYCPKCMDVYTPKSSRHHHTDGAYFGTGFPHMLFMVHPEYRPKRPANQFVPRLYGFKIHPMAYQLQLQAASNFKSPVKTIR
UniProt P84095: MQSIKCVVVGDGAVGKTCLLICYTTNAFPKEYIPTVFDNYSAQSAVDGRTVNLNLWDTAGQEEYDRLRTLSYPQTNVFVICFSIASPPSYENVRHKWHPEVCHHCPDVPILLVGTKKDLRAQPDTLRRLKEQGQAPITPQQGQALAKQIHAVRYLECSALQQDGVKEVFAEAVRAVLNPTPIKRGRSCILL
UniProt P98082: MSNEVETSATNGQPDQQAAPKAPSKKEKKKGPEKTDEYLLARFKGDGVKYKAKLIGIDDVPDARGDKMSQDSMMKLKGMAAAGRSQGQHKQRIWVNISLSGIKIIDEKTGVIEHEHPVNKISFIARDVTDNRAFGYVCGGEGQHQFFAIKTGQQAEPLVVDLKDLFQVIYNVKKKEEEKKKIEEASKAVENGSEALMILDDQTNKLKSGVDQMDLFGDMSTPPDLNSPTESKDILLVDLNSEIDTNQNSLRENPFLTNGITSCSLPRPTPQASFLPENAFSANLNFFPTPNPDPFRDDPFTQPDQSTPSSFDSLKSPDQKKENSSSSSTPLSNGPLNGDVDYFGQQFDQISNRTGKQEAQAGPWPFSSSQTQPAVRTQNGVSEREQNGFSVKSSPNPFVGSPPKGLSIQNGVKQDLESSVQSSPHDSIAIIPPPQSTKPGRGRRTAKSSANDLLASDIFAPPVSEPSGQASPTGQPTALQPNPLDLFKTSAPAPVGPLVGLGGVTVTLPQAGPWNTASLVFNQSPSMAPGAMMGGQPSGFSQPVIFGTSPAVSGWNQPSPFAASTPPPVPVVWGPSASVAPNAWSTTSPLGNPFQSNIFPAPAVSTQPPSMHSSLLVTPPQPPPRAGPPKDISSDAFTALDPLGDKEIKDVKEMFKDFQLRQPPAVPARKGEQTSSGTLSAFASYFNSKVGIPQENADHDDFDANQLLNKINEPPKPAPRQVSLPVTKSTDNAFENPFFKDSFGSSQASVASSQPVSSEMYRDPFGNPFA
UniProt P61163, whole entry: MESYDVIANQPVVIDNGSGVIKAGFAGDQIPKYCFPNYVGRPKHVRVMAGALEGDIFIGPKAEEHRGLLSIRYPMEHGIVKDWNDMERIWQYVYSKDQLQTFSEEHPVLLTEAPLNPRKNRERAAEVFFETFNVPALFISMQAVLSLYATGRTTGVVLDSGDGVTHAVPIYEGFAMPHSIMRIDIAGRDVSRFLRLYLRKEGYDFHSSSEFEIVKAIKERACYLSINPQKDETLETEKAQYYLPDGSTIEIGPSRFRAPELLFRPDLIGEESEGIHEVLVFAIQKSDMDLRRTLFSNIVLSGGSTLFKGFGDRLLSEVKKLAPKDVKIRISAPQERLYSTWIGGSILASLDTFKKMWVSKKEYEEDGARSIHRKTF
UniProt P84090, whole entry, looked up: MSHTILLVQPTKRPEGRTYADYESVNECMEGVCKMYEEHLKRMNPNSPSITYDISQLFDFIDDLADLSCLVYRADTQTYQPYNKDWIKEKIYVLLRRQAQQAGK
UniProt Q05823: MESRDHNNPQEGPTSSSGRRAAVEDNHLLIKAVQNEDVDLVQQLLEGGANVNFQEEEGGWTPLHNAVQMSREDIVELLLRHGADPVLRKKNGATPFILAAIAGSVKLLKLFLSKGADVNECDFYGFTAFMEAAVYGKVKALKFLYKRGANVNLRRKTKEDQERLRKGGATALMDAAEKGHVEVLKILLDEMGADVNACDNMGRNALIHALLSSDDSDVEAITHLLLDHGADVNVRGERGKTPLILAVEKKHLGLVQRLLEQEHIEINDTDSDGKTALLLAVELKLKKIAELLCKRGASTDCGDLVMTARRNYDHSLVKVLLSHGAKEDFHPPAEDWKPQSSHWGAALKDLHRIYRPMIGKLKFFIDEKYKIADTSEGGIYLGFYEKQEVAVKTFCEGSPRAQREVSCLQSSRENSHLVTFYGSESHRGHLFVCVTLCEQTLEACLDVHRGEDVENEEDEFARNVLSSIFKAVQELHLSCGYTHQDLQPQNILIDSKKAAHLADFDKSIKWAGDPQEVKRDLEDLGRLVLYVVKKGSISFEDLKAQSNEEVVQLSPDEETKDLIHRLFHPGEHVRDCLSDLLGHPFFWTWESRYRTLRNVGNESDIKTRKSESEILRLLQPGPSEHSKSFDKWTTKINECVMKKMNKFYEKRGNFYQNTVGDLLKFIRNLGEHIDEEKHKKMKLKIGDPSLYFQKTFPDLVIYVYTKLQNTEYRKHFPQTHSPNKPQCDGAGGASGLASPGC
UniProt P68036, whole entry: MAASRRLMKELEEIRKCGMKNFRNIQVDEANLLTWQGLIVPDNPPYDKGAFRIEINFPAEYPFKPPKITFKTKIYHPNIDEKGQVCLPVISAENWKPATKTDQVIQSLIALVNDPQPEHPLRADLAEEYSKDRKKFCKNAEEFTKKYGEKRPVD
UniProt Q01650: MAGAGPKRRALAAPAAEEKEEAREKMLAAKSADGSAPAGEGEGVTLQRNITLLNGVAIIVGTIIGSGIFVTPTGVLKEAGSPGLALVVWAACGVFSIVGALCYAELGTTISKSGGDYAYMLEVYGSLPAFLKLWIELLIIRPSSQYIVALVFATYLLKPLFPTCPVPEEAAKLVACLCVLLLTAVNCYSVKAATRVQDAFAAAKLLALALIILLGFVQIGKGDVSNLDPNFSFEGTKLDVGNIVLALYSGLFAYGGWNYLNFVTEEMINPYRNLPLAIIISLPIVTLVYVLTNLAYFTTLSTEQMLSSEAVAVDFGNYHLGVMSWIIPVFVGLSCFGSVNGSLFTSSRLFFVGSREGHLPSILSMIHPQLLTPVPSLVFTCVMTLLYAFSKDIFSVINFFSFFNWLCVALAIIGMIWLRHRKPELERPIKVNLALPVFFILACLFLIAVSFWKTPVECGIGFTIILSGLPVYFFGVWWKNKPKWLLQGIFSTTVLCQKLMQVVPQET
UniProt Q01459: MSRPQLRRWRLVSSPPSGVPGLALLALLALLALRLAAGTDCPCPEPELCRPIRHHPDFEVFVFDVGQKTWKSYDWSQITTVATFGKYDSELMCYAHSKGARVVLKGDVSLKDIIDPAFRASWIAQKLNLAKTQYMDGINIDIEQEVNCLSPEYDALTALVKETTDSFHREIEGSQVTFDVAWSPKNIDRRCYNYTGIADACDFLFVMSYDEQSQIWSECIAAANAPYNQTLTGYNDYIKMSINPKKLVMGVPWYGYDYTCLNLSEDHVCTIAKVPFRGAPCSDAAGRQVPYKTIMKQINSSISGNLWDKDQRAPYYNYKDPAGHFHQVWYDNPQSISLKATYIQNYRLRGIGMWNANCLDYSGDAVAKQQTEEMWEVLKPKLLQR

The targets below were run with Nc1ncnc2c1ncn2[C@@H]1O[C@H](COP(=O)(O)OP(=O)(O)NP(=O)(O)O)[C@@H](O)[C@H]1O [adenylyl imidodiphosphate] (assay: NP40-soluble protein abundance relative to vehicle (solubility fold change) (ratio); higher = more soluble protein in presence of AMP-PNP). Settings: concentration: 6mM.
How it was run: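 Jurkat crude lysate prepared with a Dounce homogeniser was treated at eight concentrations spanning 0.1 to 10 mM, 10 min at room temperature then 3 min at 37 °C. Solubilisation with 0.8% NP40 and benzonase and ultracentrifugation preceded TMT labelling of the supernatant for LC-MS/MS. Fold change against the detergent-processed vehicle was determined per replicate from vsn-normalised intensities, across three independent experiments.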

Target	NP40-soluble protein abundance
UniProt Q01196-11|Q01196-8|Q01196 and related entries	1.05 ± 0.046
HDAC4 (UniProt P56524)	0.977 ± 0.011
MPP1 (UniProt Q00013)	0.978 ± 0.028
UniProt Q02535	0.9714 ± 0.0042
TPM4 (UniProt P67936)	1.35 ± 0.3
ITGA1 (UniProt P56199)	1.02 ± 0.028
UniProt P55957 and related entries	0.925 ± 0.026
PITPNA (UniProt Q00169)	0.9615 ± 0.0058
UniProt P62851	0.9841 ± 0.0092
RPL7A (UniProt P62424)	0.905 ± 0.1
UniProt P67870 and related entries	0.99 ± 0.046
UniProt P84095	0.97 ± 0.079
MLLT1 (UniProt Q03111)	1.09 ± 0.039
UniProt Q00325 and related entries	1.06 ± 0.12
UniProt P56937 and related entries	0.972 ± 0.03
UniProt P98082 and related entries	1.016 ± 0.004
RPL38 (UniProt P63173)	0.919 ± 0.028
UniProt P61163	0.935 ± 0.031
UniProt P61160	0.968 ± 0.0053

Target	NP40-soluble protein abundance
UniProt P84090	1.11 ± 0.023
RNASEL (UniProt Q05823)	1.08 ± 0.039
GSTO1 (UniProt P78417)	1.03 ± 0.12
UniProt Q05519 and related entries	1.26 ± 0.049
UniProt P60763	1.01 ± 0.063
UniProt P68036 and related entries	0.979 ± 0.082
MRPS25 (UniProt P82663)	0.975 ± 0.067
PRKCQ (UniProt Q04759)	1.01 ± 0.051
UniProt Q00978 and related entries	0.99 ± 0.02
UniProt P57076	1.06 ± 0.053
UniProt P62263	0.961 ± 0.077
CTDSPL2 (UniProt Q05D32)	1.08 ± 0.037
SLC7A5 (UniProt Q01650)	0.9714 ± 0.0049
P62158 (UniProt P0DP23)	1.11 ± 0.034
YBX1 (UniProt P67809)	1.23 ± 0.072
CDK6 (UniProt Q00534)	0.967 ± 0.012
UniProt P62140	1.02 ± 0.011
CTBS (UniProt Q01459)	1.09 ± 0.061

Same assay, conditions: concentration: 8mM

Target	NP40-soluble protein abundance
UniProt Q01196-11|Q01196-8|Q01196 and related entries	1.03 ± 0.025
HDAC4 (UniProt P56524)	0.958 ± 0.024
MPP1 (UniProt Q00013)	1.01 ± 0.048
UniProt Q02535	0.979 ± 0.013
TPM4 (UniProt P67936)	1.44 ± 0.047
ITGA1 (UniProt P56199)	1.003 ± 0.0087
UniProt P55957 and related entries	0.936 ± 0.026
PITPNA (UniProt Q00169)	0.9372 ± 0.009
UniProt P62851	0.792 ± 0.038
RPL7A (UniProt P62424)	0.818 ± 0.055
UniProt P67870 and related entries	0.993 ± 0.046
UniProt P84095	0.975 ± 0.029
MLLT1 (UniProt Q03111)	1.06 ± 0.055
UniProt Q00325 and related entries	1.12 ± 0.095
UniProt P56937 and related entries	0.965 ± 0.015
UniProt P98082 and related entries	1.017 ± 0.0048
RPL38 (UniProt P63173)	0.8314 ± 0.0071
UniProt P61163	0.975 ± 0.076
UniProt P61160	1.01 ± 0.029

Target	NP40-soluble protein abundance
UniProt P84090	1.15 ± 0.066
RNASEL (UniProt Q05823)	1.09 ± 0.057
GSTO1 (UniProt P78417)	1.06 ± 0.082
UniProt Q05519 and related entries	1.34 ± 0.16
UniProt P60763	1.03 ± 0.058
UniProt P68036 and related entries	0.962 ± 0.047
MRPS25 (UniProt P82663)	0.962 ± 0.068
PRKCQ (UniProt Q04759)	1.02 ± 0.075
UniProt Q00978 and related entries	0.996 ± 0.034
UniProt P57076	1.048 ± 0.0089
UniProt P62263	0.908 ± 0.085
CTDSPL2 (UniProt Q05D32)	1.09 ± 0.039
SLC7A5 (UniProt Q01650)	0.946 ± 0.042
P62158 (UniProt P0DP23)	1.14 ± 0.013
YBX1 (UniProt P67809)	1.21 ± 0.031
CDK6 (UniProt Q00534)	0.945 ± 0.033
UniProt P62140	1.06 ± 0.034
CTBS (UniProt Q01459)	1.06 ± 0.051

Same assay, conditions: concentration: 10mM

Target	NP40-soluble protein abundance
UniProt Q01196-11|Q01196-8|Q01196 and related entries	1.089 ± 0.01
HDAC4 (UniProt P56524)	0.986 ± 0.011
MPP1 (UniProt Q00013)	0.986 ± 0.034
UniProt Q02535	0.9699 ± 0.0014
TPM4 (UniProt P67936)	1.24 ± 0.16
ITGA1 (UniProt P56199)	0.972 ± 0.026
UniProt P55957 and related entries	0.907 ± 0.062
PITPNA (UniProt Q00169)	0.953 ± 0.032
UniProt P62851	1.07 ± 0.063
RPL7A (UniProt P62424)	0.916 ± 0.16
UniProt P67870 and related entries	0.986 ± 0.042
UniProt P84095	0.967 ± 0.04
MLLT1 (UniProt Q03111)	1.1 ± 0.063
UniProt Q00325 and related entries	1.1 ± 0.092
UniProt P56937 and related entries	0.949 ± 0.036
UniProt P98082 and related entries	1.035 ± 0.0064
RPL38 (UniProt P63173)	1.003 ± 0.0099
UniProt P61163	0.914 ± 0.12
UniProt P61160	0.948 ± 0.024

Target	NP40-soluble protein abundance
UniProt P84090	1.18 ± 0.065
RNASEL (UniProt Q05823)	1.08 ± 0.05
GSTO1 (UniProt P78417)	0.994 ± 0.12
UniProt Q05519 and related entries	1.51 ± 0.2
UniProt P60763	1.02 ± 0.1
UniProt P68036 and related entries	0.932 ± 0.12
MRPS25 (UniProt P82663)	0.961 ± 0.069
PRKCQ (UniProt Q04759)	0.975 ± 0.066
UniProt Q00978 and related entries	0.998 ± 0.029
UniProt P57076	1.08 ± 0.034
UniProt P62263	0.954 ± 0.11
CTDSPL2 (UniProt Q05D32)	1.15 ± 0.035
SLC7A5 (UniProt Q01650)	0.943 ± 0.045
P62158 (UniProt P0DP23)	1.11 ± 0.058
YBX1 (UniProt P67809)	1.34 ± 0.067
CDK6 (UniProt Q00534)	0.91 ± 0.029
UniProt P62140	1.01 ± 0.036
CTBS (UniProt Q01459)	1.07 ± 0.042
